Reference: patent US20220362396A1, “AMINO-PYRAZINECARBOXAMIDE COMPOUNDS, CONJUGATES, AND USES THEREOF” (Silverback Therapeutics, Inc., priority 2018, published 2022)
The match of structure and compound is tentative.

Protein sequences, listed by entry. Tags and fused reporters are not part of them. Residues count along the entry.
UniProt P37173, 23-567 limits assumed: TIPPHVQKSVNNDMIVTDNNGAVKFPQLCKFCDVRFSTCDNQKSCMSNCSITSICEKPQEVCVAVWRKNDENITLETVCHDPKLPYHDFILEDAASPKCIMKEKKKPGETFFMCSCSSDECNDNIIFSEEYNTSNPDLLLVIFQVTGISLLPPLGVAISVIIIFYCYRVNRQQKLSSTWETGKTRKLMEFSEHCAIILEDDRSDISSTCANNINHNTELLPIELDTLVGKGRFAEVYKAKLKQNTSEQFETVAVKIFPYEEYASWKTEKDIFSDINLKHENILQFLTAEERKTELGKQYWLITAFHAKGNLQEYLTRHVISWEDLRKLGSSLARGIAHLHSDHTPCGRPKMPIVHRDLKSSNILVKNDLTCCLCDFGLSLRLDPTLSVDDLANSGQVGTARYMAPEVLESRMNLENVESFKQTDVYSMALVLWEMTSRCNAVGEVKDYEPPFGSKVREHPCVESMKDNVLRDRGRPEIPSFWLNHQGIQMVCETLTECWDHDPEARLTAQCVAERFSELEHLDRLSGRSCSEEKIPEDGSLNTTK

Legend:
[1] = test system: TGFβ/SMAD Signaling Pathway SBE reporter cell line; experiment: TGFβ reporter assay, in vitro small molecule screening (luciferase); settings: read-out: EC50 (reporter assay), TGFβ stimulation, luminescence
Experimental: TGFβ/SMAD Signaling Pathway SBE reporter cell line was obtained from BPS Bioscience. Cells were passed, expanded, and stored in liquid nitrogen as per the supplier's instructions with the exception that growth media is changed to DMEM-C with Geneticin (DMEM supplemented with 10% fetal bovine serum, 1×NEAA, 1 mM Pyruvate, 2 mM glutamine, 50 μg/mL penicillin, 50 U/mL streptomycin and 400 μg/mL of Geneticin). The assay media was MEM supplemented with 0.5% fetal bovine serum, 1×NEAA, 1 mM Pyruvate, 50 μg/mL penicillin and 50 U/mL streptomycin.
Test samples (at desired concentrations diluted in assay media) were added to a 96-well assay plate, 20 μL per well. Reporter cells were harvested from the tissue culture flasks by incubation in small quantity of PBS at 37° C. for two minutes after the media in the flask is removed and cells rinsed with PBS. Cells were counted and diluted in the assay media at approximately 0.5×10^6 cells/mL and then 80 μL/well of cells were added to the assay plate containing the 20 μL/well of test samples (or media only), and incubated for approximately 5-6 hours at 37° C. in a 5% CO2 humidified incubator. […] Luciferase substrate solution is subsequently added at 100 μL per well, incubated in the dark at room temperature for 15 min, and luminescence is measured using a luminometer. […]

TGFBR2 = TGFBR2 (Homo sapiens, UniProt P37173); experiment: TGFBR2 RBC assay (enzyme inhibition assay, Reaction Biology Corp.); settings: read-out: IC50 (enzyme inhibition assay)
Experimental: Compounds of the disclosure were also assayed by Reaction Biology Corp. using the TGFBR2 RBC assay (enzyme inhibition assay). […] NT refers to not tested.

EC50 [1] [nM] | IC50 (TGFBR2) [nM] | Compound
> 1000 | > 1000 | Nc1ncc(N2CCC(N)CC2)nc1C(=O)Nc1cnccc1N1CCOCC1
> 1000 | > 1000 | Cc1nc(N)c(C(=O)Nc2cnccc2N2CCOCC2)nc1-c1ccc(OCCNC(=O)OCc2ccccc2)cc1
